In the supplement of paper PMC6411743 one finds NP40-soluble protein abundance data, which are given here for 15 targets.

Chains of the proteins cited; added tags and fusions are not shown. Lines headed by an entry give the natural chain unless they say otherwise; changes in a name come on top.
UniProt Q96F63: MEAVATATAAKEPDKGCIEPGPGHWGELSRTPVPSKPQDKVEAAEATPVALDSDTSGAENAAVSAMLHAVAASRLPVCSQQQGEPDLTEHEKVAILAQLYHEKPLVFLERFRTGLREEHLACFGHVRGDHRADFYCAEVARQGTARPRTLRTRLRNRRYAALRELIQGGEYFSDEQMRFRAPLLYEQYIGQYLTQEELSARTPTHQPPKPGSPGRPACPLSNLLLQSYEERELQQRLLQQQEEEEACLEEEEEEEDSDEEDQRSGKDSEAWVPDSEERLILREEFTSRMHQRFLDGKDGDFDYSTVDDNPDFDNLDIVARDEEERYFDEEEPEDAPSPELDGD
UniProt Q8WVD3: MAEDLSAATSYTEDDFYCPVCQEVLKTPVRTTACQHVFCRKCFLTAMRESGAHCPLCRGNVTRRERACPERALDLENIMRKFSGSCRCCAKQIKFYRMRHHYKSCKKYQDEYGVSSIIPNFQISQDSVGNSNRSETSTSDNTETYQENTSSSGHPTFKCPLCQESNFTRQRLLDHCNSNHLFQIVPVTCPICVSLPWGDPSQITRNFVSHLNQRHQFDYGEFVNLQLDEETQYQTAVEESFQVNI
UniProt Q969N2: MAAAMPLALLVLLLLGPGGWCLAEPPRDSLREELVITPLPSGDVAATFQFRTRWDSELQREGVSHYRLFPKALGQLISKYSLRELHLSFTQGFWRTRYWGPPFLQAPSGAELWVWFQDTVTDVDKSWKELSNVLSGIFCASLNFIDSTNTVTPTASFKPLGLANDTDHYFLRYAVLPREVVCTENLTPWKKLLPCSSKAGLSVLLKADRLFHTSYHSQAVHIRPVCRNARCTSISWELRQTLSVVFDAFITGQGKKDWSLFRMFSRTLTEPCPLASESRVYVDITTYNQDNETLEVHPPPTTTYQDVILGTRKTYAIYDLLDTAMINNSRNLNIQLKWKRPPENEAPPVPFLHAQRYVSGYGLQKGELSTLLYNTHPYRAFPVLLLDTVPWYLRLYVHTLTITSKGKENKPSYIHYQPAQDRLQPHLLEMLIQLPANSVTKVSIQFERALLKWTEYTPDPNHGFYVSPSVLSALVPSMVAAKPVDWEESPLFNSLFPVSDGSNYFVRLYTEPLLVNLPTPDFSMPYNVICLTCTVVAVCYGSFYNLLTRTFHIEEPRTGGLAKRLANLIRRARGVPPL
UniProt Q96CX2: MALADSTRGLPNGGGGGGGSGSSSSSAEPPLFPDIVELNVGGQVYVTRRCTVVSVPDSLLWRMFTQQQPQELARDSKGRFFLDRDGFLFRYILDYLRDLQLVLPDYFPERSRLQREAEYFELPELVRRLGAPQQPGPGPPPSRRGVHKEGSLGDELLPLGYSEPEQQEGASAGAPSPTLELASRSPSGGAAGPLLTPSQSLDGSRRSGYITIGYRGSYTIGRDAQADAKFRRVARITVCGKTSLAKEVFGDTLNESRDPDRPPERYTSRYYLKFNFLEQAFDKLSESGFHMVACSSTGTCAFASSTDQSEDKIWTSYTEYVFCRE
UniProt Q969S3: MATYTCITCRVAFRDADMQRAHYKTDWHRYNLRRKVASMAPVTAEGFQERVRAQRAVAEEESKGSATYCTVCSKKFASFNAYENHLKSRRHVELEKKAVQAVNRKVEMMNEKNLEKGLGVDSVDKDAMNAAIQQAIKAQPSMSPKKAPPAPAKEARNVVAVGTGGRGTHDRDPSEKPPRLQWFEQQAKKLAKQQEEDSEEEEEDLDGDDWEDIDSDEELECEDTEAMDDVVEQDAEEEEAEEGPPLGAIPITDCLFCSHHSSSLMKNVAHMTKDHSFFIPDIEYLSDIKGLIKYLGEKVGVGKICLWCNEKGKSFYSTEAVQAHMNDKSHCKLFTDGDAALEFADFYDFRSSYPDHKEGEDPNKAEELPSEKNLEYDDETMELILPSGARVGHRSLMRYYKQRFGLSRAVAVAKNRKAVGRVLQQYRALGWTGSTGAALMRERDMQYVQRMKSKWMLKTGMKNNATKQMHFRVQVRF
UniProt Q96HS1, whole entry: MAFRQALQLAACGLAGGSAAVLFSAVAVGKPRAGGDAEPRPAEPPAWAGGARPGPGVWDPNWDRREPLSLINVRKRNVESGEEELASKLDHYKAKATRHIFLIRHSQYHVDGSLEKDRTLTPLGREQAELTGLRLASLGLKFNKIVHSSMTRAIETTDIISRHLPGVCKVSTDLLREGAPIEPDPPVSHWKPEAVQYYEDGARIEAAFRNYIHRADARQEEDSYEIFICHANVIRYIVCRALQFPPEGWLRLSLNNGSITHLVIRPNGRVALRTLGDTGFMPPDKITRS
UniProt Q8WUM4: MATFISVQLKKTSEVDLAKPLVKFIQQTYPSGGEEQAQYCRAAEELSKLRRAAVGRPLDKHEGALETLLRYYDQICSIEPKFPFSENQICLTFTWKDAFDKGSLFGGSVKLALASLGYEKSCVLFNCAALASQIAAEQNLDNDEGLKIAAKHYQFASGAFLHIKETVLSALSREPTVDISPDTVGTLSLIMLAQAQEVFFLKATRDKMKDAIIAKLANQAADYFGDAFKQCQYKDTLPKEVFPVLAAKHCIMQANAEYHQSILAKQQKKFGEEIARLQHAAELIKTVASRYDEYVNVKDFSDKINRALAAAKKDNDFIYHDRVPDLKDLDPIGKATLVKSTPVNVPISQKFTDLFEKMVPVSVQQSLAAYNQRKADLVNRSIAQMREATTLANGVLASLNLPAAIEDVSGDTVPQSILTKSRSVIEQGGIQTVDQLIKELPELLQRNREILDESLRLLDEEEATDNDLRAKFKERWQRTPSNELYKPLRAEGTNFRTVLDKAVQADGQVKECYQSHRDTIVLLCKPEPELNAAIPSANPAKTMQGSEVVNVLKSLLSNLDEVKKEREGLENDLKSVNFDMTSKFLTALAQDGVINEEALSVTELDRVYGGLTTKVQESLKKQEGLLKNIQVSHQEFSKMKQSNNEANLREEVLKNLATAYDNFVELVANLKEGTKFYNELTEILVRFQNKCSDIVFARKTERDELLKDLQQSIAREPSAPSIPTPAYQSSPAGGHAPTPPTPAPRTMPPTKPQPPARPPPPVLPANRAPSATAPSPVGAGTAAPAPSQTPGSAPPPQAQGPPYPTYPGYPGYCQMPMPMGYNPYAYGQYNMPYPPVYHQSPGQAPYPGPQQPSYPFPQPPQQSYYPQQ
UniProt Q8WXG6, whole entry, looked up: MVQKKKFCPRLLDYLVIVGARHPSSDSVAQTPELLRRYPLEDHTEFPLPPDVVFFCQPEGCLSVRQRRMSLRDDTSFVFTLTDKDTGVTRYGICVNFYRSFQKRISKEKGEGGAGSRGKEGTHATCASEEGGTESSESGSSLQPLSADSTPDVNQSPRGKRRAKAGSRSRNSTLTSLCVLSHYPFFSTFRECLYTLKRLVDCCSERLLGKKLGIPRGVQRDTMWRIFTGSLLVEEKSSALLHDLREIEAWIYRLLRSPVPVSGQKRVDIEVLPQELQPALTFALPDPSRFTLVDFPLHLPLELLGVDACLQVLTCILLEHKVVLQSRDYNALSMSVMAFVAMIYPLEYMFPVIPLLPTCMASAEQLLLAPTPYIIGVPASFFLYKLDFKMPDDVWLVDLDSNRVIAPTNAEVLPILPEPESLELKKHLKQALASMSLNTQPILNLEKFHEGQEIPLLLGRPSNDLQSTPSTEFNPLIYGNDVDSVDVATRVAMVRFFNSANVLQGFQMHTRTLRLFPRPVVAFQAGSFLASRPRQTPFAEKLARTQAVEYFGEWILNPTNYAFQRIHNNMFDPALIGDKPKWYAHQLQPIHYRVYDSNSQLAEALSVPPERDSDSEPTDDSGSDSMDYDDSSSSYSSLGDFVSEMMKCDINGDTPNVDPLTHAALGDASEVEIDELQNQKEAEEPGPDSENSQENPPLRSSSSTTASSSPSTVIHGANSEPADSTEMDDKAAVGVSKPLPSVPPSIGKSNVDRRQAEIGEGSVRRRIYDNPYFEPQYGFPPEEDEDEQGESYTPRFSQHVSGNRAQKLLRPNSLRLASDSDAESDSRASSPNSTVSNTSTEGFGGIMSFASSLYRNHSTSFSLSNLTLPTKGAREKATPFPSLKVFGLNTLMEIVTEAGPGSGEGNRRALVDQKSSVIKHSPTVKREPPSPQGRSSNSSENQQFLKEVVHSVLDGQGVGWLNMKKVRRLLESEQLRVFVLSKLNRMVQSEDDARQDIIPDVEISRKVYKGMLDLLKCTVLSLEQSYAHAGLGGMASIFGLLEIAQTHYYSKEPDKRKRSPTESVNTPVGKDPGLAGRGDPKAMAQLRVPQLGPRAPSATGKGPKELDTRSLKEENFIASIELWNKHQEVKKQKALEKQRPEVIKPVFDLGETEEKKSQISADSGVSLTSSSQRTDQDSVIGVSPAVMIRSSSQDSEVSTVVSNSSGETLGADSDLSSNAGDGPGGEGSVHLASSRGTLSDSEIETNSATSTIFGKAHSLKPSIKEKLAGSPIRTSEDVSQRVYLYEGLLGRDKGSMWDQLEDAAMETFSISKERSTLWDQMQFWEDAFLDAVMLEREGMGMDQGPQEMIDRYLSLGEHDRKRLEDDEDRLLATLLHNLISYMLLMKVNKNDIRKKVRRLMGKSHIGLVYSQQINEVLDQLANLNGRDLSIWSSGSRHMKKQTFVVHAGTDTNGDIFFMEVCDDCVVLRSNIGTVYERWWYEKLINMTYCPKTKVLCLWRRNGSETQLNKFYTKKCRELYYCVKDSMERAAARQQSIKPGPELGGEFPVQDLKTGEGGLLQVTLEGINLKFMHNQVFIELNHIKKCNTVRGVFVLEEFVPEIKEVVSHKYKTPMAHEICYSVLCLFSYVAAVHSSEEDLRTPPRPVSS
UniProt Q92882: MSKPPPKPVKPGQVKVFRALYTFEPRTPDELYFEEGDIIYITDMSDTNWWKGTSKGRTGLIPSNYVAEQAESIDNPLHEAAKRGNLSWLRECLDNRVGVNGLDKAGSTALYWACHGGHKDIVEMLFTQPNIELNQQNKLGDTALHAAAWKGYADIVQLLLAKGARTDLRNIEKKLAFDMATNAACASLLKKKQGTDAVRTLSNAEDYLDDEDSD
UniProt Q96EM0: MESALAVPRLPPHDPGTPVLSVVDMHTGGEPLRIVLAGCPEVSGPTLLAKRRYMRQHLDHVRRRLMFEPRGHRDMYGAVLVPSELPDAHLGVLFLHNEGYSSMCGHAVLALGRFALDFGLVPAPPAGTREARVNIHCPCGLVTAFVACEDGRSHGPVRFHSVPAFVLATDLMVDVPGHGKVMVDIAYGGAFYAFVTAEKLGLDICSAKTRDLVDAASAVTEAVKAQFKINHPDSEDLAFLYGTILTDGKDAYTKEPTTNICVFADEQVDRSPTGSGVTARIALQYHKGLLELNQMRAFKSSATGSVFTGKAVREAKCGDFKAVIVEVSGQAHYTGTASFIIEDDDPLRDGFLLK
UniProt Q92620: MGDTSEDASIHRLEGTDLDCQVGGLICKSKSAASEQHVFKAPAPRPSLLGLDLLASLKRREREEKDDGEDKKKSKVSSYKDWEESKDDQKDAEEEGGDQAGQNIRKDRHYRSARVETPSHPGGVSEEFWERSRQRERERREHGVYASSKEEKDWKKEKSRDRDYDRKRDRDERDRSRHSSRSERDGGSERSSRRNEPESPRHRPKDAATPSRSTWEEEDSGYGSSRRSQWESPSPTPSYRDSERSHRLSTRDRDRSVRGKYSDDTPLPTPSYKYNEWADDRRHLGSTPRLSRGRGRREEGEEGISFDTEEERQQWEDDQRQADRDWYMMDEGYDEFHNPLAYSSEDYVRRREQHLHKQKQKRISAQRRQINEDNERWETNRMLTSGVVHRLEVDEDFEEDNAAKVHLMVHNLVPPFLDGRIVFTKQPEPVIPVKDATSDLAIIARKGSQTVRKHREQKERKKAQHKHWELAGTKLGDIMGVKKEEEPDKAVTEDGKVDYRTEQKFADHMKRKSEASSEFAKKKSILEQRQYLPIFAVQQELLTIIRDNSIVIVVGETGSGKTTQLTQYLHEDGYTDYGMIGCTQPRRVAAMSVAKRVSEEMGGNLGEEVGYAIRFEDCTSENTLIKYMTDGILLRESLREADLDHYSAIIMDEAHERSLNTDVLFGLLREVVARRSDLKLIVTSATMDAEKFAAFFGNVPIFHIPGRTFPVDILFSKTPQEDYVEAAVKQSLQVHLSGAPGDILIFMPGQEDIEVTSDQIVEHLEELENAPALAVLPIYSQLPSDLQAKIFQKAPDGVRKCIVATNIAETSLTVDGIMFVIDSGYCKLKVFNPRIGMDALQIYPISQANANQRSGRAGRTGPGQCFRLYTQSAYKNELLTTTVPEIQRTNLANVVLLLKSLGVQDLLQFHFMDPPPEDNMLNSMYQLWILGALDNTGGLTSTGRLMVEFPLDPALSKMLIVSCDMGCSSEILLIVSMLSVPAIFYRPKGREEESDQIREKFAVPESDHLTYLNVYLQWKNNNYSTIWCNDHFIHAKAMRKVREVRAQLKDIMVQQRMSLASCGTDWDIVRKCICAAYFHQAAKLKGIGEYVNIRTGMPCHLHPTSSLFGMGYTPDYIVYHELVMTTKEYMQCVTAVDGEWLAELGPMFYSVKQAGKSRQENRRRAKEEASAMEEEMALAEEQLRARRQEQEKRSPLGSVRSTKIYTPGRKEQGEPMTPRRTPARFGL

± gives the standard deviation of the averaged measurements. The list shows a part of the results.

Compound in this experiment: Nc1nc2c(ncn2[C@@H]2O[C@H](COP(=O)(O)OP(=O)(O)OP(=O)(O)O)[C@@H](O)[C@H]2O)c(=O)[nH]1 [guanosine triphosphate]
Kind of experiment: NP40-soluble protein abundance relative to vehicle (solubility fold change) (ratio); higher = more soluble protein in presence of GTP. The method, boiled down: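 Jurkat crude lysate (Dounce-homogenised) was treated with eight concentrations from 0.1 to 10 mM for 10 min at room temperature, then 3 min at 37 °C. It was solubilised with 0.8% NP40 and benzonase (60 min, 4 °C) and ultracentrifuged, and the supernatant was TMT-labelled for LC-MS/MS. Intensities were vsn-normalised, and the value is the fold change against the NP40-processed vehicle per replicate, from three independent experiments.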

Consider UniProt Q96JM3, for which the NP40-soluble protein abundance by setting is: (concentration: 0.1mM) 0.984 ± 0.039; (concentration: 0.5mM) 0.972 ± 0.074; (concentration: 1mM) 1.03 ± 0.059; (concentration: 2mM) 1.05 ± 0.067; (concentration: 4mM) 1.13 ± 0.067; (concentration: 6mM) 1.15 ± 0.068. Moreover, the NP40-soluble protein abundance is, setting by setting: (concentration: 8mM) 1.28 ± 0.15; (concentration: 10mM) 1.26 ± 0.16.
On to UniProt Q96F63 and related entries, for which the NP40-soluble protein abundance reads like this: (concentration: 0.1mM) 0.92 ± 0.086; (concentration: 0.5mM) 0.932 ± 0.044; (concentration: 1mM) 1.1 ± 0.14; (concentration: 2mM) 1.07 ± 0.08; (concentration: 4mM) 1.06 ± 0.11; (concentration: 6mM) 1.06 ± 0.082. The NP40-soluble protein abundance amounted to 1.08 ± 0.13 (concentration: 8mM) and 1.14 ± 0.16 (concentration: 10mM).
For the target RNF138 (UniProt Q8WVD3), the NP40-soluble protein abundance (concentration: 0.1mM) was determined as 1.06 ± 0.049; the NP40-soluble protein abundance (concentration: 0.5mM) is 1.05 ± 0.022; the NP40-soluble protein abundance (concentration: 1mM) came out at 1.04 ± 0.017; the NP40-soluble protein abundance (concentration: 2mM) worked out at 1.04 ± 0.069; the NP40-soluble protein abundance (concentration: 4mM) worked out at 1.07 ± 0.051; the NP40-soluble protein abundance (concentration: 6mM) came to 1.06 ± 0.049. For the same target, the NP40-soluble protein abundance (concentration: 8mM) came to 1.09 ± 0.073 and the NP40-soluble protein abundance (concentration: 10mM) amounted to 1.09 ± 0.026.
Regarding UniProt Q969N2 and related entries, the NP40-soluble protein abundance was 1.07 ± 0.075 (concentration: 0.1mM); 1.08 ± 0.13 (concentration: 0.5mM); 0.948 ± 0.12 (concentration: 1mM); 1 ± 0.1 (concentration: 2mM); 0.953 ± 0.078 (concentration: 4mM); 0.982 ± 0.14 (concentration: 6mM). In addition, the NP40-soluble protein abundance is 0.92 ± 0.059 (concentration: 8mM) and 0.941 ± 0.031 (concentration: 10mM).
On to UniProt Q96F44 and related entries, for which the NP40-soluble protein abundance (concentration: 0.1mM) was 1.03 ± 0.13; the NP40-soluble protein abundance (concentration: 0.5mM) was determined as 1.09 ± 0.047; the NP40-soluble protein abundance (concentration: 1mM) amounted to 1.05 ± 0.093; the NP40-soluble protein abundance (concentration: 2mM) was 1.06 ± 0.036; the NP40-soluble protein abundance (concentration: 4mM) is 1.02 ± 0.08; the NP40-soluble protein abundance (concentration: 6mM) was 1.07 ± 0.053. The NP40-soluble protein abundance reads like this: (concentration: 8mM) 1.05 ± 0.11; (concentration: 10mM) 1.02 ± 0.048.
For the target KCTD12 (UniProt Q96CX2), the NP40-soluble protein abundance (concentration: 0.1mM) is 1.07 ± 0.047; the NP40-soluble protein abundance (concentration: 0.5mM) was 1.05 ± 0.046; the NP40-soluble protein abundance (concentration: 1mM) came out at 0.974 ± 0.017; the NP40-soluble protein abundance (concentration: 2mM) was determined as 1.02 ± 0.03; the NP40-soluble protein abundance (concentration: 4mM) is 0.983 ± 0.055; the NP40-soluble protein abundance (concentration: 6mM) is 0.971 ± 0.048. Further, the NP40-soluble protein abundance was determined as 0.95 ± 0.062 (concentration: 8mM) and 0.955 ± 0.052 (concentration: 10mM).
As for ZNF622 (UniProt Q969S3), the NP40-soluble protein abundance reads like this: (concentration: 0.1mM) 1.03 ± 0.084; (concentration: 0.5mM) 1.03 ± 0.14; (concentration: 1mM) 1.11 ± 0.17; (concentration: 2mM) 1.15 ± 0.11; (concentration: 4mM) 1.16 ± 0.14; (concentration: 6mM) 1.24 ± 0.077. Also, the NP40-soluble protein abundance runs as follows: (concentration: 8mM) 1.31 ± 0.18; (concentration: 10mM) 1.42 ± 0.18.
As for PGAM5 (UniProt Q96HS1), the NP40-soluble protein abundance reads like this: (concentration: 0.1mM) 1.03 ± 0.034; (concentration: 0.5mM) 1.09 ± 0.073; (concentration: 1mM) 1.18 ± 0.14; (concentration: 2mM) 1.4 ± 0.26; (concentration: 4mM) 1.67 ± 0.38; (concentration: 6mM) 1.79 ± 0.45. Further, the NP40-soluble protein abundance turned out to be 1.86 ± 0.4 (concentration: 8mM) and 1.95 ± 0.47 (concentration: 10mM).
Consider PDCD6IP (UniProt Q8WUM4), for which the NP40-soluble protein abundance was 0.945 ± 0.046 (concentration: 0.1mM); 0.957 ± 0.053 (concentration: 0.5mM); 0.943 ± 0.061 (concentration: 1mM); 0.889 ± 0.075 (concentration: 2mM); 0.873 ± 0.084 (concentration: 4mM); 0.895 ± 0.064 (concentration: 6mM). Also, the NP40-soluble protein abundance is, setting by setting: (concentration: 8mM) 0.904 ± 0.053; (concentration: 10mM) 0.883 ± 0.07.
Take TOPBP1 (UniProt Q92547): the NP40-soluble protein abundance (concentration: 0.1mM) came to 0.993 ± 0.023; the NP40-soluble protein abundance (concentration: 0.5mM) came to 0.99 ± 0.055; the NP40-soluble protein abundance (concentration: 1mM) worked out at 0.985 ± 0.019; the NP40-soluble protein abundance (concentration: 2mM) was determined as 1.01 ± 0.046; the NP40-soluble protein abundance (concentration: 4mM) was 1.03 ± 0.038; the NP40-soluble protein abundance (concentration: 6mM) came to 1 ± 0.036. Further, the NP40-soluble protein abundance reads like this: (concentration: 8mM) 0.998 ± 0.055; (concentration: 10mM) 0.9898 ± 0.0049.
On to CHMP7 (UniProt Q8WUX9), for which the NP40-soluble protein abundance runs as follows: (concentration: 0.1mM) 0.945 ± 0.058; (concentration: 0.5mM) 0.935 ± 0.087; (concentration: 1mM) 0.973 ± 0.085; (concentration: 2mM) 0.92 ± 0.11; (concentration: 4mM) 0.884 ± 0.074; (concentration: 6mM) 0.9 ± 0.045. In addition, the NP40-soluble protein abundance was found to be 0.912 ± 0.1 (concentration: 8mM) and 0.889 ± 0.084 (concentration: 10mM).
Consider “UniProt Q8WXG6-4|Q8WXG6-5|Q8WXG6-6|Q8WXG6-8”, for which the NP40-soluble protein abundance was found to be 1.05 ± 0.077 (concentration: 0.1mM); 1.04 ± 0.053 (concentration: 0.5mM); 1.05 ± 0.024 (concentration: 1mM); 1.02 ± 0.042 (concentration: 2mM); 1.04 ± 0.018 (concentration: 4mM); 1.02 ± 0.034 (concentration: 6mM). In addition, the NP40-soluble protein abundance is 1.07 ± 0.02 (concentration: 8mM) and 1.04 ± 0.03 (concentration: 10mM).
As to OSTF1 (UniProt Q92882), the NP40-soluble protein abundance is 0.887 ± 0.047 (concentration: 0.1mM); 0.879 ± 0.07 (concentration: 0.5mM); 0.927 ± 0.12 (concentration: 1mM); 0.869 ± 0.14 (concentration: 2mM); 0.848 ± 0.13 (concentration: 4mM); 0.845 ± 0.11 (concentration: 6mM). The NP40-soluble protein abundance was determined as 0.853 ± 0.11 (concentration: 8mM) and 0.854 ± 0.09 (concentration: 10mM).
As for UniProt Q96EM0, the NP40-soluble protein abundance came to 0.976 ± 0.19 (concentration: 0.1mM); 0.971 ± 0.15 (concentration: 0.5mM); 0.869 ± 0.093 (concentration: 1mM); 0.892 ± 0.11 (concentration: 2mM); 1.02 ± 0.026 (concentration: 4mM); 0.929 ± 0.095 (concentration: 6mM). The NP40-soluble protein abundance was 0.85 ± 0.16 (concentration: 8mM) and 0.895 ± 0.085 (concentration: 10mM).
For DHX38 (UniProt Q92620), the NP40-soluble protein abundance by setting is: (concentration: 0.1mM) 1.07 ± 0.037; (concentration: 0.5mM) 1.1 ± 0.038; (concentration: 1mM) 1.11 ± 0.1; (concentration: 2mM) 1.09 ± 0.035; (concentration: 4mM) 1.18 ± 0.043; (concentration: 6mM) 1.17 ± 0.061. For the same target, the NP40-soluble protein abundance turned out to be 1.23 ± 0.076 (concentration: 8mM) and 1.19 ± 0.049 (concentration: 10mM).
